PubChem BioAssay AID493246, Drosophila RNAi Screening Center – 2011
Screen: 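Identify essential fly genes by loss of cell viability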 (primary screen). Cell system: Drosophila Kc and S2R+ cells. Reagents: long dsRNA against Drosophila genes. Measurement: 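Raw, unnormalised count of remaining cells in each well; per-plate z-scores of cell number underlie the calls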. Reading the numbers: Kc cell number and S2R+ cell number: higher = more cells remaining. Hit rule: 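Counted as a hit if cell number falls by a z-score of at least 3 within its plate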.
The deposit covers about 21,000 reagents; this is a random part of those that have a named target and a result. In the full data, 429 (2%) got an active call. 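Values are raw and not normalised between plates; calls rest on per-plate z-scores that were not deposited.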 A plus sign joins genes that one reagent is predicted to hit. Not given: the amount of reagent, the time to read-out.

BomT2 [DRSC06631] | Kc cell number, rep 1 = 1.56e6; Kc cell number, rep 2 = 1.65e6; S2R+ cell number, rep 1 = 1.23e6; S2R+ cell number, rep 2 = 1.38e6; activity call = inactive
CG8202 [DRSC16396] | Kc cell number, rep 1 = 1.33e6; Kc cell number, rep 2 = 1.37e6; S2R+ cell number, rep 1 = 1.29e6; S2R+ cell number, rep 2 = 1.39e6; activity call = inactive
CG5245 [DRSC15750] | Kc cell number, rep 1 = 1.45e6; Kc cell number, rep 2 = 1.49e6; S2R+ cell number, rep 1 = 1.25e6; S2R+ cell number, rep 2 = 1.31e6; activity call = inactive
GluRIB + CG42509 (retired record) [DRSC10258] | Kc cell number, rep 1 = 1.62e6; Kc cell number, rep 2 = 1.75e6; S2R+ cell number, rep 1 = 1.17e6; S2R+ cell number, rep 2 = 1.41e6; activity call = inactive
GluRIB + CG42509 (retired record) [DRSC11177] | Kc cell number, rep 1 = 1.60e6; Kc cell number, rep 2 = 1.63e6; S2R+ cell number, rep 1 = 1.23e6; S2R+ cell number, rep 2 = 1.31e6; activity call = inactive
CG7222 [DRSC07019] | Kc cell number, rep 1 = 1.46e6; Kc cell number, rep 2 = 1.44e6; S2R+ cell number, rep 1 = 1.20e6; S2R+ cell number, rep 2 = 1.28e6; activity call = inactive
CG9119 [DRSC08620] | Kc cell number, rep 1 = 1.37e6; Kc cell number, rep 2 = 1.37e6; S2R+ cell number, rep 1 = 9.42e5; S2R+ cell number, rep 2 = 9.68e5; activity call = inactive
Prosalpha4T2 [DRSC04643] | Kc cell number, rep 1 = 1.53e6; Kc cell number, rep 2 = 1.55e6; S2R+ cell number, rep 1 = 1.27e6; S2R+ cell number, rep 2 = 1.48e6; activity call = inactive
CG34227 [DRSC06788] | Kc cell number, rep 1 = 1.56e6; Kc cell number, rep 2 = 1.59e6; S2R+ cell number, rep 1 = 1.17e6; S2R+ cell number, rep 2 = 1.31e6; activity call = inactive
CG34227 [DRSC07034] | Kc cell number, rep 1 = 1.51e6; Kc cell number, rep 2 = 1.57e6; S2R+ cell number, rep 1 = 1.17e6; S2R+ cell number, rep 2 = 1.34e6; activity call = inactive
CG34260 + cmpy [DRSC11701] | Kc cell number, rep 1 = 1.29e6; Kc cell number, rep 2 = 1.25e6; S2R+ cell number, rep 1 = 1.27e6; S2R+ cell number, rep 2 = 1.36e6; activity call = inactive
CG16824 [DRSC02525] | Kc cell number, rep 1 = 1.62e6; Kc cell number, rep 2 = 1.73e6; S2R+ cell number, rep 1 = 1.13e6; S2R+ cell number, rep 2 = 1.31e6; activity call = inactive
CG34355 [DRSC13639] | Kc cell number, rep 1 = 1.20e6; Kc cell number, rep 2 = 1.35e6; S2R+ cell number, rep 1 = 1.05e6; S2R+ cell number, rep 2 = 1.17e6; activity call = inactive
CG34355 [DRSC14520] | Kc cell number, rep 1 = 1.52e6; Kc cell number, rep 2 = 1.47e6; S2R+ cell number, rep 1 = 9.70e5; S2R+ cell number, rep 2 = 1.03e6; activity call = inactive
CG34355 [DRSC14668] | Kc cell number, rep 1 = 1.52e6; Kc cell number, rep 2 = 1.46e6; S2R+ cell number, rep 1 = 9.82e5; S2R+ cell number, rep 2 = 1.09e6; activity call = inactive
CG17272 [DRSC15211] | Kc cell number, rep 1 = 1.49e6; Kc cell number, rep 2 = 1.52e6; S2R+ cell number, rep 1 = 1.16e6; S2R+ cell number, rep 2 = 1.26e6; activity call = inactive
z [DRSC18855] | Kc cell number, rep 1 = 3.08e5; S2R+ cell number, rep 1 = 5.80e5; activity call = active
jigr1 [DRSC13724] | Kc cell number, rep 1 = 1.02e6; Kc cell number, rep 2 = 1.31e6; S2R+ cell number, rep 1 = 1.07e6; S2R+ cell number, rep 2 = 1.01e6; activity call = inactive
jigr1 [DRSC15233] | Kc cell number, rep 1 = 1.62e6; Kc cell number, rep 2 = 1.60e6; S2R+ cell number, rep 1 = 9.91e5; S2R+ cell number, rep 2 = 1.09e6; activity call = inactive
NimC3 [DRSC03556] | Kc cell number, rep 1 = 1.54e6; Kc cell number, rep 2 = 1.60e6; S2R+ cell number, rep 1 = 1.24e6; S2R+ cell number, rep 2 = 1.40e6; activity call = inactive
SCCRO [DRSC10844] | Kc cell number, rep 1 = 1.54e6; Kc cell number, rep 2 = 1.57e6; S2R+ cell number, rep 1 = 1.16e6; S2R+ cell number, rep 2 = 1.49e6; activity call = inactive
